Laboratory results as given in patent publication US20110223107A1.
Residue numbers refer to the chain shown, from its start. Results are given in words; binding and its absence hold for the method and conditions named. Some binding calls cover weakened binding; strength is not graded here. For some assays here: Sequences can lack the tags named with a protein. Blank lines part the entries; values can stand above or below the binder they belong to.

Experiments:
[1] = molecular target: T1, KAAG1 (Kidney associated antigen 1), endogenous, on cancer cells and in tumour tissue (human) (UniProt Q9UBP8); test: cell-based ELISA on non-permeabilised fixed OV-90, TOV-21G and SKOV-3 cells, HRP anti-human IgG detection
T1 sequence: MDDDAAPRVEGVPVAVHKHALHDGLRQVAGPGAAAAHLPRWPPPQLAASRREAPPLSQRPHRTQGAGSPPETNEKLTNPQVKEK

[2] = molecular target: T1, KAAG1 (Kidney associated antigen 1), endogenous, on cancer cells and in tumour tissue (human); test: cell-based ELISA on fixed, non-permeabilised TOV-21G cells
[3] = molecular target: T1, KAAG1 (Kidney associated antigen 1), endogenous, on cancer cells and in tumour tissue (human); test: cell-based ELISA on fixed, non-permeabilised OV-90 cells
[4] = molecular target: T1, KAAG1 (Kidney associated antigen 1), endogenous, on cancer cells and in tumour tissue (human); test: cell-based ELISA on fixed, non-permeabilised SKOV-3 cells
[5] = molecular target: T2, Fc-fused truncated mutant of KAAG1 spanning amino acids 1-35 (human); test: ELISA on Fc-fused truncated KAAG1
T2 sequence: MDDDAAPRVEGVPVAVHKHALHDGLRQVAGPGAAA

[6] = molecular target: recombinant Fc-KAAG1 fusion protein (full-length KAAG1) (human) (UniProt Q9UBP8); test: ELISA on biotinylated Fc-KAAG1
[7] = molecular target: T1, KAAG1 (Kidney associated antigen 1), endogenous, on cancer cells and in tumour tissue (human); test: flow cytometry on SKOV-3 cells, anti-mouse IgG-FITC
[8] = molecular target: T1, KAAG1 (Kidney associated antigen 1), endogenous, on cancer cells and in tumour tissue (human); test: flow cytometry on SKOV-3 cells at saturating conditions, FITC anti-mouse IgG detection
[9] = molecular target: T1, KAAG1 (Kidney associated antigen 1), endogenous, on cancer cells and in tumour tissue (human); test: immunohistochemistry on paraffin-embedded ovarian tumour tissue microarrays, biotin anti-kappa and streptavidin-HRP detection
[10] = molecular target: T1, KAAG1 (Kidney associated antigen 1), endogenous, on cancer cells and in tumour tissue (human); test: immunohistochemistry on an ovarian tumour tissue microarray (FIG. 8A legend)
[11] = molecular target: T1, KAAG1 (Kidney associated antigen 1), endogenous, on cancer cells and in tumour tissue (human); test: cell-based ELISA on non-permeabilised fixed cells; signal on SKOV-3 only, not on OV-90 or TOV-21G

- binding [1]: binds
- binding [2]: binds
- binding [3]: binds
- binding [4]: binds
B1: 3C4 mouse-human chimeric IgG1 anti-KAAG1 monoclonal antibody (antibody, V domains shown)
VH: EVQLQESGPDLVKPSQSLSLTCTVTGFSITSGYGWHWIRQFPGNKLEWMGYINYDGHNDYNPSLKSRISITQDTSKNQFFLQLNSVTTEDTATYYCASSYDGLFAYWGQGTLVTVSA
VL: DIVMSQSPSSMYASLGERVTITCKASQDIHNFLNWFQQKPGKSPKTLIFRANRLVDGVPSRFSGSGSGQDYSLTISSLEFEDLGIYSCLQYDEIPLTFGAGTKLELRA

- binding [5]: binds
- binding [6]: binds
B2: Fab of well D1 (Omniclonal AL0003Z1 plate) (Fab, V domains shown)
VH: B1 VH with N44D, N53S, Y54F, D55N, H57D, N58Y, D59N, Q72R, N84S
VL: DIKMTQSPSSMYASLGERVTITCKASQDIHTYLNWFQQKPGKSPETLIYRANRLVDGVPSRFSGSGSGQDYSLTISSLEYEDMGIYYCLQYDEFPLTFGAGTKLELK

- binding [5]: binds
- binding [6]: binds
B3: Fab of well C2 (Omniclonal AL0003Z1 plate) (Fab, V domains shown)
VH: B1 VH with E1D, N53S, Y54F, D55N, H57D, N58S, D59N, Q72R, T88S, T111P
VL: B2 VL with K3Q, I21L, T31N, E45K, Y49H, D56A, M83L, E93A

- binding [1]: binds
- binding [2]: binds
- binding [3]: binds
- binding [4]: binds
B4: 3D3 mouse-human chimeric IgG1 anti-KAAG1 monoclonal antibody (antibody, V domains shown)
VH: EVQLQQSVAELVRPGASVTLSCKASGYIFTDYEIHWVKQTPVHGLEWIGVIDPETGNTAFNQKFKGKATLTADISSSTAYMELSSLTSEDSAVYYCMGYSDYWGQGTTLTVSS
VL: DIVMTQSPSSLAVSIGQKVTMNCKSSQSLLNSNFQKNFLAWYQQKPGQSPKLLIYFASTRESSIPDRFIGSGSGTDFTLTISSVQAEDLADYFCQQHYSTPLTFGAGTKLELKA

- binding [7]: binds
- binding [8]: binds
B5: mouse 3D3 anti-KAAG1 antibody (antibody, V domains shown)
VH: B4 VH
VL: DIVMTQSPSSLAVSIGQKVTMNCKSSQSLLNSNFQKNFLAWYQQKPGQSPKLLIYFASTRESSIPDRFIGSGSGTDFTLTISSVQAEDLADYFCQQHYSTPLTFGAGTKLELK

- binding [9]: binds
- binding [10]: binds
B6: anti-KAAG1 3D3 (primary mAb of the immunohistochemistry) (antibody, V domains shown)
VH: B4 VH
VL: B5 VL

- binding [11]: binds
- binding [2]: binds
- binding [3]: binds
- binding [4]: binds
B7: 3G10 mouse-human chimeric IgG1 anti-KAAG1 monoclonal antibody (antibody, V domains shown)
VH: EIQLQQSGPELVKPGASVKISCKASGYTFTDNYMNWVKQSHGKSLEWIGDINPYYGTTTYNQKFKGKATLTVDKSSRTAYMELRGLTSEDSAVYYCARDDWFDYWGQGTLVTVSA
VL: DVLMTQTPRSLSVSLGDQASISCRSSQSLLHSNGNTYLEWYLQKPGQPPKVLIYKVSNRFSGVPDRFSGSGSGTDFTLKISGVEAEDLGVYYCFQGSHVPLTFGAGTKLELKA
